The whole screen tested about 31,000 sequences, of which about 1,400 (4.5%) were called active.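 How the source made its calls: active means median seed-adjusted z-score above 1 or below -1; inactive means the rest.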 The list shows a part of the results.

A short description of the assay: Novel Modifiers of Survival Motor Neuron (SMN) Protein: Gene Identification via Genome-wide siRNA Screen.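 Further: luminescence tracks full-length SMN protein made from the SMN2 reporter.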 The following applies: HEK293T SMN2-luciferase reporter, siRNA knockdown, 72 h; actives lie on both sides. Put shortly: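 Each of three siRNAs per gene is reverse-transfected (1 pmol) into reporter HEK293T cells whose luciferase output tracks SMN protein level. After 72 h culture, ONE-Glo luminescence is control-normalized, log10-transformed and MAD-standardized; Common Seed Analysis deprioritizes seed-driven hits.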
As to GGGAUGCAGCAGAUCAGAATT against RAB3D, the median seed-adjusted z-score is inactive: 0.221. Regarding GUAGCUUGCUACUCCAGAATT against POLR2D, the median seed-adjusted z-score is active: -3.79.

Turning to GGAGCAUUCUCAUUCGAGATT against CSTF3, the median seed-adjusted z-score is inactive: 0.0879. The same measure for AGACCCAUCUUUUACUGCATT against TRIM56: inactive: -0.452. On to CGUGCGGACAAUAAGCAAATT against MYO1C, for which the median seed-adjusted z-score is inactive: 0.566. As to GGAUACAUAUUACUUCUGATT against SLCO1C1, the median seed-adjusted z-score is inactive: 0.071. The same measure for AGGAGAUUCUGAACAGGCUTT against GPR26: active: -1.33. Turning to GGGAUCUUCUGGUACCUGUTT against SLC17A7, the median seed-adjusted z-score was inactive: -0.0794. The result for CAACCAGAAUUGGAGGUAATT against CARD6 reads inactive: 0; that for CAAAAGAGGUUAACCUUGATT against RGS18, inactive: -0.0369; that for AAGUUAGUCCUAAAGUGUATT against UCHL1, inactive: -0.421. For CGAUAUCAGCUGAUUAUGATT against TRPM1, the median seed-adjusted z-score is inactive: -0.527. Turning to GGAUACACCUUUGAAGUUATT against ADH7, the median seed-adjusted z-score was inactive: -0.388. With GAUCUUGCCCUAUCAAGCATT against DBP, the median seed-adjusted z-score is inactive: -0.115. The result for GGUCCAACAUGCAAUCCAATT against EDEM3 reads inactive: 0.119; that for CAUACUUUUUGGAUAGACATT against MTX1, inactive: -0.159. For the sequence AGAAGACGGUGACGAUGAATT against SYT7, the median seed-adjusted z-score is inactive: -0.762. The same measure for CCACUAUUUUGAUUCUCUUTT against GPR63: inactive: -0.0154; for GGAUCUUACUGGUGCAAAATT against CD300E: inactive: 0.337. Take CCAGAUUGUGGACUUCCUATT against MATN4: the median seed-adjusted z-score was inactive: -0.262. In the case of CCGAAUGAGUUUGAACAUATT against ZNF48, the median seed-adjusted z-score was inactive: -0.116. The result for GUGCUUUGACUGUCAAGAATT against ZNF333 reads inactive: 0.418; that for AGCACGAACUGUCAUCUUUTT against PGLS, inactive: 0.188; that for GGGUGGAGGUGUACUAUGATT against LOXL2, inactive: 0.177. The result for CAAACUUCAGAGGAGUGUATT against ZNF396 reads inactive: -0.247; that for GCAGAACUCUCUAAAGGAUTT against VAV1, inactive: 0.215; that for GCAAUGCACCGCUCACUAATT against SMARCC2, inactive: 0.0684. As for GAGUAACCAGUAUCAAGUUTT against DBF4, the median seed-adjusted z-score is inactive: -0.319.

As for UCCUUUACAUCUACAAGGATT against UNQ2541, the median seed-adjusted z-score was inactive: -0.954. The result for AAAUCCCUUUGACACCUUUTT against DNAJB1 reads inactive: 0.466; that for GGGCCGUCAUGAUAGAUCUTT against TUBA8, inactive: -0.0453. For the sequence GGCUUUUGCCCUAUCCAUUTT against WNK4, the median seed-adjusted z-score is inactive: 0.385. As for GCAUAGGAUUCAUUGAGUUTT against NME1, the median seed-adjusted z-score was inactive: 0.188. The same measure for GGCUAUAAUUGGAGCACGATT against PVR: inactive: -0.324; for GGUGUUAUCUGAAAAGGUUTT against MAGT1: inactive: -0.0855.

For GUACUUACCUUGUGAGGCATT against VAV3, the median seed-adjusted z-score is inactive: 0. The result for CCUGACUUCUGCAAACCUATT against CHRFAM7A reads inactive: 0.115; that for CCUCCUUCCUGUACACGGATT against PHYHD1, inactive: -0.37; that for CGAUUCAAAAGAUCUGAUATT against MBTD1, inactive: 0.0649. Regarding GCAUUGCAGAGAACCGACATT against METTL7A, the median seed-adjusted z-score was inactive: 0.278. The same measure for GCACCUAGAUUGGAUAGAATT against TRIP12: inactive: 0.16; for GGAUAGUAUUGGUUGCUAUTT against ADAM22: inactive: 0.292. On to GGUACGAAUGAAUACCUUUTT against PTPN4, for which the median seed-adjusted z-score is inactive: -0.447. The result for CUUGCUAUUUUAAUCAACATT against KCNMB4 reads inactive: 0; that for CAGUCUCAUUUUCCCAUGATT against PCBP2, inactive: 0; that for CUUUCUGUCUAAAUGCGAATT against SERPINB12, inactive: -0.525. For the sequence GCAUGUCUGUCAACGGAUUTT against SV2C, the median seed-adjusted z-score is inactive: 0.183. The same measure for GAAGAUCGGAUGUCCGUAATT against DPYS: inactive: -0.288; for GGCUGAAAGAUAUGCUGAATT against ROM1: inactive: 0.41; for GCACCAUUGCCUACGAAAATT against LGALS3BP: inactive: 0.187.

For the sequence CCUCCUCAUCUGCAACUCATT against MED25, the median seed-adjusted z-score was inactive: -0.589. Turning to GCACAUGCUUAAAAACGCATT against RPL17, the median seed-adjusted z-score was inactive: -0.13. Take CCAAUCUGCAGCGAGCUUATT against STUB1: the median seed-adjusted z-score was inactive: 0.202. The result for GCACUGUUCGGUAUCCUAUTT against NCAN reads inactive: -0.391; that for UAACAAAUCCUAUUAGAUUTT against CTBP2, inactive: -0.241.

CUUCCACUUUCAUAAGGUUTT against SELO: the median seed-adjusted z-score is inactive: 0.0973.

Turning to GGACAUCCUAAAAUCAGAATT against ZNF7, the median seed-adjusted z-score is inactive: 0.

For the sequence CGCAGAAGUUAACACUUCATT against CD200R1, the median seed-adjusted z-score was inactive: 0.0679. The same measure for GAGUCAGUGUCGAUAUGAATT against THEM2: inactive: 0.449; for GUAACUUCCUAUUCACCAATT against EPAS1: inactive: -0.166. The result for CAUCUUUGAUAUCACUAAUTT against CD80 reads inactive: 0.553; that for GCUGUUUAAGAAGAACCUATT against VPS11, inactive: 0. The same measure for GUAGUACUCGUAUCACGAATT against ACOT12: inactive: 0.0741; for GACUAAAGAUUCAGAUAAATT against TRIM13: inactive: 0.712; for ACUUUGCUCCUACUAUUCATT against NEGR1: inactive: 0.194. Regarding GGCAUUACCUAUCACUUUUTT against KCNG3, the median seed-adjusted z-score was inactive: 0.0832. For GGAAUUCCGUUGACUUGUUTT against MPST, the median seed-adjusted z-score was inactive: -0.181. The same measure for GCACAAUCGGACUUAUUCATT against UCHL1: inactive: -0.421; for CAGUCAAGGUGAAGUACUATT against TRIM32: inactive: 0.109.

For the origin of these results see PubChem BioAssay AID1347426 (Functional Genomics Laboratory (NCATS/FGL), 2020).
